This passage reports binding results from patent US20050054008A1.

Protein sequences, listed by entry. Tags and fused reporters are not part of them. Lines headed by an entry give the natural chain unless they say otherwise; changes in a name come on top.
UniProt Q9Y6K9: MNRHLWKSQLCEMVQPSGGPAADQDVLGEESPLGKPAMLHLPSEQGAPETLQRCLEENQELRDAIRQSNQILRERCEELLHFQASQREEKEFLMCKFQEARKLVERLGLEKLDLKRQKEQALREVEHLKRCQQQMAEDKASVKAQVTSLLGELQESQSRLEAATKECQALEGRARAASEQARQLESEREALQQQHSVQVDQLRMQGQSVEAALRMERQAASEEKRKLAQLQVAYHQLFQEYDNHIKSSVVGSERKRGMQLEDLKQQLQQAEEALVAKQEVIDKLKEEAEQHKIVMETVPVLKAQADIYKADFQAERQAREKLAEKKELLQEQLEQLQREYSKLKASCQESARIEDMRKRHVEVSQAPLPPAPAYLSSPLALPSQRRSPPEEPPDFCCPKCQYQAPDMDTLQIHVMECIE
UniProt P22736: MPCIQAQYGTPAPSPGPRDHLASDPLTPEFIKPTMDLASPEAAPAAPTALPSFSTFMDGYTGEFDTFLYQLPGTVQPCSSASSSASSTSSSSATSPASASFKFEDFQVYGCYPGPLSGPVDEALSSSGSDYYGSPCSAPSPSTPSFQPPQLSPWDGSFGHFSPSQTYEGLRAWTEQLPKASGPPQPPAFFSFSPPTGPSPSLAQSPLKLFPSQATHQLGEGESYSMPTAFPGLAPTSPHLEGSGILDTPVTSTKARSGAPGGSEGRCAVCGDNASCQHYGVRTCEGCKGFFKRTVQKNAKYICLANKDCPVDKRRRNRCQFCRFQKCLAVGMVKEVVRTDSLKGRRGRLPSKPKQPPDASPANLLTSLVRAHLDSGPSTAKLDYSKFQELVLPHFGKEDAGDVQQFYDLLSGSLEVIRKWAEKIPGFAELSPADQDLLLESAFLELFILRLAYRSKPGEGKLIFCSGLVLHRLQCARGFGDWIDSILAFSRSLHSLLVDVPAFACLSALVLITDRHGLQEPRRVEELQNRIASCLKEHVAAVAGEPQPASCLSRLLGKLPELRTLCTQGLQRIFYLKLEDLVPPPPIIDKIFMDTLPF
UniProt P19793: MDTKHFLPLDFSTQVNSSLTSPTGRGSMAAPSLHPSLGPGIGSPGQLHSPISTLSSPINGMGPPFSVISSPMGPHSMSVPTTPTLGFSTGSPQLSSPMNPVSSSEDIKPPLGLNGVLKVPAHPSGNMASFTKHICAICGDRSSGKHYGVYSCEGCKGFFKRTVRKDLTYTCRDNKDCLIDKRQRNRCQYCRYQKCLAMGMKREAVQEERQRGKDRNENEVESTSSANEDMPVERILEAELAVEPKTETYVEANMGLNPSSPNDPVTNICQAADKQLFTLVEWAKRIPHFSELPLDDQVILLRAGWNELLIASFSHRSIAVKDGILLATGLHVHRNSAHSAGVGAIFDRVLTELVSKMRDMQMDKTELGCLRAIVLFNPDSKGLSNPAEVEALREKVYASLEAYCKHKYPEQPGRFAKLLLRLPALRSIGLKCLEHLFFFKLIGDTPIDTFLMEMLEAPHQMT

Results are given in words; binding and its absence hold for the method and conditions named. Binding seen in cells or lysates may run through a third protein. Some entries that bind do so weakly or less than the wild type. For some assays here: Tags and fused reporters may be left off the sequences shown.

The target of assay [1] is HA-IKKγ (UniProt Q9Y6K9). Description: co-immunoprecipitation of tagged proteins (figure legend).
Assay [2] concerns the target HA-IKKγ (UniProt Q9Y6K9). Nature of the assay: co-immunoprecipitation from HEK293T cells transfected with HA-IKKγ and Flag-RXRα.
Assay [3] has as its target TR3/467 (TR3 mutant comprising a truncated C-terminus) (Homo sapiens (Human)) (UniProt P22736). Nature of the assay: GST pull-down, immunoblot. (In general: In western blotting, separated proteins are transferred to a membrane and probed.)
The target in assay [4] is T1, IKKβ (IkB kinase beta subunit), tagged, expressed from pcDNA3 in HEK293T cells (UniProt O14920).
T1 sequence (looked up): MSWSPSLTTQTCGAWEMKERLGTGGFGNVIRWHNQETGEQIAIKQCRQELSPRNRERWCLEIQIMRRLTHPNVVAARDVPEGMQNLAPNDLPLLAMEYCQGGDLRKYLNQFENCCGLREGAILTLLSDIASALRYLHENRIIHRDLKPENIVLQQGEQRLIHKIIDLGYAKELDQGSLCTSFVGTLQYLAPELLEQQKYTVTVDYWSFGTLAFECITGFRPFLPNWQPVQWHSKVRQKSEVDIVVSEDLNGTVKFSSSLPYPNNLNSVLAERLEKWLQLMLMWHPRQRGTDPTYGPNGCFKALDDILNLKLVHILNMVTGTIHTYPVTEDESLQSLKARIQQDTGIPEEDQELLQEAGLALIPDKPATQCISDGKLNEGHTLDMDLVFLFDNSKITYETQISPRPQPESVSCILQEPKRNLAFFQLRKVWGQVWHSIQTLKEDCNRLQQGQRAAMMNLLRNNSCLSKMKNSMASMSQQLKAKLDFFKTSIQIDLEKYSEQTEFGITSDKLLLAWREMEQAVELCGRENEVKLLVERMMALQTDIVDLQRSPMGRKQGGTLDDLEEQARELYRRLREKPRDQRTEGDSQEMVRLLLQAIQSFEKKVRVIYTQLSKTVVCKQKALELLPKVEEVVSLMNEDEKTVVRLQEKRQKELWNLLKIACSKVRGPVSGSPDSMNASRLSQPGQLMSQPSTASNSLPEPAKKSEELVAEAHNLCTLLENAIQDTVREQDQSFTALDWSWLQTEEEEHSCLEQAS
Description: co-immunoprecipitation of tagged proteins (figure legend).

Assay [5] concerns the target T1, IKKβ (IkB kinase beta subunit), tagged, expressed from pcDNA3 in HEK293T cells. Nature of the assay: co-immunoprecipitation from transfected HEK293T cells treated with sulindac sulfide (75 uM, 6 hr).

As for “Flag-RXR.alpha. (from UniProt P19793 1-462) (receptor)”, the binding entry in assay [1] and in assay [2] was “binds” throughout.
On to “GST-RXR.alpha. (from UniProt P19793 1-462)”, for which, in assay [3], the binding entry is “binds”.
For the substance “RXR.alpha., tagged, expressed from pcDNA3 in HEK293T cells (co-immunoprecipitation with IKK.beta.) (from UniProt P19793 1-462) (receptor)”, the binding result in assay [4] and in assay [5] was “binds” in each case.
